Measurements from PMC3460625.
No constants are given. Whether binding was seen depends on the method and setting. Binding seen in cells or lysates may run through a third protein. Some binding calls cover weakened binding; strength is not graded here. Sequences can lack the tags named with a protein.

Sequences of proteins named here, by UniProt entry; tags and fusion partners are left off.
UniProt P03519: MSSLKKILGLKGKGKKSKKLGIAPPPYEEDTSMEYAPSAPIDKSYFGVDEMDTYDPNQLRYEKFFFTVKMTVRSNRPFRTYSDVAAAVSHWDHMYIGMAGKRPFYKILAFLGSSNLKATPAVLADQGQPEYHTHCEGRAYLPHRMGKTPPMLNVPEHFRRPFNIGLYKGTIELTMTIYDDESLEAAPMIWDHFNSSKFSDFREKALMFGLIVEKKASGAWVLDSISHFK

Biological target: T1, hemagglutinin (HA) epitope tagged Rae1 (UniProt P78406)
T1 sequence: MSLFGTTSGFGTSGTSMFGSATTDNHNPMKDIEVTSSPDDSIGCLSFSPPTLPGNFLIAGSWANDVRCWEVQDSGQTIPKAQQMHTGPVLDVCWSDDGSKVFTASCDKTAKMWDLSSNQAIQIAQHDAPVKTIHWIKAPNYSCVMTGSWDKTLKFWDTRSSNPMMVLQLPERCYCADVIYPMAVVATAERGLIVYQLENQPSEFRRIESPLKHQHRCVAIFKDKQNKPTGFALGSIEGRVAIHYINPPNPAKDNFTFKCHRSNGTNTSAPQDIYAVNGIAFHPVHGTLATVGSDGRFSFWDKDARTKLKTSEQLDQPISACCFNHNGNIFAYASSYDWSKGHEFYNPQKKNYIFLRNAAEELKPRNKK
Test: co-IP

M protein of recombinant wild-type VSV (rwt virus) in infected cells (from UniProt P03519 1-229)
binding: binds
